## Results of single-concentration screens

Protein sequences, listed by entry. Tags and fused reporters are not part of them.
UniProt P9WPC5, whole entry: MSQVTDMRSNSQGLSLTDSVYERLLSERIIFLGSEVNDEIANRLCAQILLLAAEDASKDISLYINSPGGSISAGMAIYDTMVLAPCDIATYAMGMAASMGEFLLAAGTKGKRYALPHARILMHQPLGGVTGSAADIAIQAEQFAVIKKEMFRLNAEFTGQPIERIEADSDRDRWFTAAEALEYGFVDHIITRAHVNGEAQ
UniProt P9WPC3, whole entry partner: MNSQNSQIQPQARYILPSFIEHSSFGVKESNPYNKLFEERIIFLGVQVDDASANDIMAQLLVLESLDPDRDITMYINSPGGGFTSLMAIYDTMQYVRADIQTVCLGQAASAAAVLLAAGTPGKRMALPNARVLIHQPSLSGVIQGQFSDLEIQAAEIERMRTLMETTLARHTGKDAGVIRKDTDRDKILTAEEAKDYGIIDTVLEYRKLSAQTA

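Protease assay of ClpP1P2, read by the AMC dye that it sets free. Target: ClpP1P2, Mycobacterium tuberculosis (UniProt P9WPC5 and UniProt P9WPC3). Tested at 50 µM. Higher reads as stronger inhibition, judged from the few compounds that gave an IC50. Most other retested compounds had strongly negative values. Of about 69,000 compounds tested this way, about 10 (0.015%) reached 50% or more in at least one test.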

Each number is a percent effect as filed.
The record does not define 0% and 100%; most values in the screen are far below 50% and negative numbers occur (in some assays of this library far below -100).
The compounds are a random part of those screened.

| Compound | percent effect |
|---|---|
| `COC(=O)C(C)(C)NC(=O)c1cc(COc2ccccc2OC)[nH]n1` | -5.546 |
| `CC(=O)Nc1ccc(OCc2noc(C(=O)N3CCCCC3)n2)cc1` | 11.92 |
| `Cc1cccc(NCCOc2cccc(C#N)c2)c1C(N)=O` | 2.089 |
| `CC(c1cc(F)ccc1F)N(C)CCS(=O)(=O)CCC(N)=O` (stereo unspecified) | 11.54 |
| `Cc1ccc(CC(=O)N2CCCC(c3nccs3)C2)cn1` (stereo unspecified) | -17.77 |
| `COc1ccccc1OCCCc1cc(C#N)ccn1` | 11.55 |
| `COC(=O)CC(NC(=O)c1cc(OC)c2c(c1)OCCO2)c1cccs1` (stereo unspecified) | 14.13 |
| `CC1CN(CC(=O)N2CCCC2)CCN1c1ccc2nncn2n1` (stereo unspecified) | -15.08 |
| `CCC[C@H]1CN(Cc2cc(C)no2)C[C@@H]1NC(=O)C1(COC)CCC1` | -4.606 |
| `Cn1cc(C(=O)NCc2cncc3c2CCN(S(C)(=O)=O)C3)cn1` | 4.651 |
| `CC(C)(C)c1n[nH]c(C2CN(C(=O)c3cc(C4CC4)[nH]n3)CCO2)n1` (stereo unspecified) | -6.216 |
| `O=C([C@H]1CCCO1)N1CC[C@@H](O)[C@@H]1Cc1ccccc1` | -3.501 |
| `COCCC(=O)N1CCCC(c2nc(O)cc(-c3ccncc3)n2)C1` (stereo unspecified) | -0.7617 |
| `CCSC(C)C(=O)N1CCC(c2nn(C)c(=O)n2-c2ccccc2)CC1` (stereo unspecified) | -0.6566 |
| `CC(C)[C@]1(O)CN(C(=O)CNC(N)=O)C[C@H]1C` | -2.463 |
| `O=C(CCOc1ccccc1F)N1CCCC1Cn1cccn1` (stereo unspecified) | -25.46 |
| `CCCn1cnc2c1CN(S(=O)(=O)Cc1ccccc1)[C@H](C(=O)OC)C2` | -1.348 |
| `O=C(c1cccnc1O)N1CCN(Cc2ccccc2F)CC1` | -0.6143 |
| `O=C(CCCn1ccnc1)NC1CCCN(c2ccccc2Cl)C1` (stereo unspecified) | -10.27 |
| `O=C(Nc1ccccc1)N1CCC2(CC(=O)N(c3ccsc3)C2)C1` (stereo unspecified) | -6.927 |
| `CC(C)CCNC(=O)c1cccnc1Oc1cccnc1` | -0.2916 |
| `CC1=N[C@@]2(CC[C@@H]3CN(CC4CC4)C[C@@H]32)C(=O)N1CC(C)C` | -4.903 |
| `CC(C)CCN1CCCC12Cc1ccccc1CNC2=O` (stereo unspecified) | -4.36 |
| `CS(=O)(=O)Cc1ccc(CNc2ncc(C#N)cc2Cl)cc1` | -6.136 |
| `CN1CCCCC1CCC(=O)NCCSc1cnn[nH]1` (stereo unspecified) | -10.39 |
| `Cc1cccc(CN2CC3C[C@]3(NC(=O)c3cccc(F)c3)C2)n1` (stereo partly specified) | -13.26 |
| `Cc1cc(O)ccc1-c1cc(-c2cnn(C)c2C2CC2)c(C#N)c(N)n1` | -11.24 |
| `CC(N(C)Cc1nc2c(cnn2C)c(=O)[nH]1)C(C)(C)C` (stereo unspecified) | 8.624 |
| `Cc1cc(C)c(Cn2cncn2)cc1CN1CC[C@H](CO)[C@@H](O)C1` | 7.155 |
| `COC(=O)C1CCN(C(=O)CN2CCN(c3cccc(C)c3)CC2)CC1` | 0.4122 |
| `CC(C)Oc1cccc(F)c1C(C(=O)O)N1CCCC1` (stereo unspecified) | -10.68 |
| `Cc1ccc(CN(CCCn2ccnc2)Cc2ccccc2O)s1` | 15.73 |
| `O=C(NC1CCCC1)c1cnn2c(-c3ccco3)ccnc12` | -116 |
| `Fc1ccc2[nH]c([C@H]3CCN(C4CCOCC4)C3)nc2c1` | -4.649 |
| `Cc1cc(N(C)C)nc(N2CCn3c(C)nnc3C2)n1` | -7.246 |
| `Cc1nc(C)c(C(=O)Nc2cccc(CN3CCC(CO)CC3)c2)o1` | 2.602 |
| `O=C(Nc1cn[nH]c1)c1ccncc1` | -12.4 |
| `c1cncc(CN2CCn3cc(CN4CCCCC4)nc3C2)c1` | -0.1792 |
| `Cc1ccccc1NC(=O)NCCn1nc(C(F)(F)F)n(C)c1=O` | -14.01 |
| `N#Cc1c(Cl)nsc1NCc1cccnc1OCC(F)(F)F` | 10.87 |
| `Nc1nc2c(c(NCc3ccncc3)n1)CCCC2` | 10.11 |
| `Cc1cc(N(C)C)nc(N2CCN(C(C)c3nc(C)no3)CC2)n1` (stereo unspecified) | 6.466 |
| `CC(=O)NCc1cncc(C2CCCN2C2CCOCC2)n1` (stereo unspecified) | -13.84 |
| `O=C(CCOc1ccccc1F)NC1CCCN(c2ccccn2)C1` (stereo unspecified) | -6.971 |
| `c1cnn(CC2CN(CCCOc3ccc4c(c3)OCO4)CCO2)c1` (stereo unspecified) | -7.391 |
| `CCSc1cccc(NCc2cccnc2)c1` | 10.82 |
| `Cc1noc(C)c1CN(C)C(=O)CN1CC(c2ccccc2)CC1=O` (stereo unspecified) | -13.32 |
| `COc1ccc(CN2CC[C@H]3[C@H]2CCN3C(=O)c2cnn(C)c2)cc1` | 5.848 |
| `Cc1ccccc1Cn1cnc2oc(C)c(C(=O)O)c2c1=O` | -9.148 |
| `COC[C@@]12CCO[C@@H]1CCN(C(=O)CCc1ccccc1Cl)C2` | -18.44 |
| `Cc1cn[nH]c1C1COCCN1C(=O)c1cc(F)ccc1F` (stereo unspecified) | -13.9 |
| `Cc1ccc(NC2CCN(C(=O)c3cc(C(N)=O)cs3)CC2)nn1` | 1.327 |
| `Cc1nnc2n1CCN(CCOc1ccccc1)C2` | -1.42 |
| `CC(C)c1nc(CN(C)C(=O)C2CC(=O)N(Cc3ccncc3)C2)cs1` (stereo unspecified) | -4.458 |
| `Cc1ncsc1CN1C[C@@H]2COC[C@]2(C(=O)NCc2cccnc2)C1` | -2.788 |
| `Cc1noc(C)c1CN1CCN(C(C)c2nc(C3CC3)no2)CC1` (stereo unspecified) | -6.698 |
| `COCCNc1nc(C)nc2c1CCN(C[C@H]1CC[C@@H](N)CC1)CC2` | -12.54 |
| `Cc1cnc(NCCc2c[nH]cn2)nc1-c1ccnn1C` | -27.62 |
| `Cc1ccoc1C(=O)N1CC[C@@H]2CN(C3CCOCC3)CCO[C@@H]2C1` | -5.636 |
| `Cn1cnnc1C1CCCN(C(=O)c2cc(C3CC3)on2)C1` (stereo unspecified) | -10.94 |
| `CC(C)CNC(=O)c1[nH]nc(C2CC2)c1Br` | -5.558 |
| `Cc1cc(C)c(S(=O)(=O)Nc2c(C)noc2C)cc1C(=O)O` | -13.15 |
| `Cc1ccccc1C(=O)N1CCOC2(CNCCOC2)C1` (stereo unspecified) | -1.136 |
| `Cc1ccc(CN2Cc3c(C(=O)N4CCCC4)nn(C)c3C2)s1` | 3.763 |
| `Cc1ccc(CNC(=O)N2CCN(C(C)c3cccnc3)CC2)cn1` (stereo unspecified) | -4.976 |
| `COc1cccc(Cn2c(C)c(C)oc2=O)c1OC` | -1.249 |
| `COCCN(Cc1ccc(F)cc1Cl)C(=O)c1ccc(=O)[nH]n1` | -2.077 |
| `O=C(C1CCCO1)N1CCC2(CC1)COCCN2CC1CC1` (stereo unspecified) | -1.678 |
| `CCN1CCC(N[C@@H]2CC[C@@H]2NC(=O)Cc2csc(C)n2)CC1` | -0.626 |

The first 7 entries again:

| Compound | percent effect |
|---|---|
| `COC(=O)C(C)(C)NC(=O)c1cc(COc2ccccc2OC)[nH]n1` | -5.546 |
| `CC(=O)Nc1ccc(OCc2noc(C(=O)N3CCCCC3)n2)cc1` | 11.92 |
| `Cc1cccc(NCCOc2cccc(C#N)c2)c1C(N)=O` | 2.089 |
| `CC(c1cc(F)ccc1F)N(C)CCS(=O)(=O)CCC(N)=O` (stereo unspecified) | 11.54 |
| `Cc1ccc(CC(=O)N2CCCC(c3nccs3)C2)cn1` (stereo unspecified) | -17.77 |
| `COc1ccccc1OCCCc1cc(C#N)ccn1` | 11.55 |
| `COC(=O)CC(NC(=O)c1cc(OC)c2c(c1)OCCO2)c1cccs1` (stereo unspecified) | 14.13 |

The values are deposited in ChEMBL (CHEMBL3988442, “University of Dundee, Small-Polar-MMV Screening Library” (2021)).